Four molecules from patent US6344443 can be followed below.

Amino acid sequences for entries named in this document (tags omitted). Residues count along the entry.
UniProt P20333, residues 23-257: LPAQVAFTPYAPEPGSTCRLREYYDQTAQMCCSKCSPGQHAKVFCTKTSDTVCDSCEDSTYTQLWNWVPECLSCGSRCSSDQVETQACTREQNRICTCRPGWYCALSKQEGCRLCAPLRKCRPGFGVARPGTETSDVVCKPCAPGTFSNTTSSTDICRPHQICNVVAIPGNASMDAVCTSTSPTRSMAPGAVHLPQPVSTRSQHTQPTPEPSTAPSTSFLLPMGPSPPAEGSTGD
UniProt P19438, residues 41-201: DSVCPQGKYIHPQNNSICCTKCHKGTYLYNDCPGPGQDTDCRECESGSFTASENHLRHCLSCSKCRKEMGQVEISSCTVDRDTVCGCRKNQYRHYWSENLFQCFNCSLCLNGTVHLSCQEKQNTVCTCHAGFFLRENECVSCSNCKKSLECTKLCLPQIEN

Results are given in words; binding and its absence hold for the method and conditions named. Some binding calls cover weakened binding; strength is not graded here. Sequences can lack the tags named with a protein. Ends that are not written are not given here.

Assay [1] deals with soluble type II TNF receptor (UniProt P20333). In words: phage display library screening on TNF receptors.
The target of assay [2] is soluble type I TNF receptor (UniProt P19438). Put plainly: phage display library screening on TNF receptors.

Regarding FSPLHTSTYRPS [Phe-Ser-Pro-Leu-His-Thr-Ser-Thr-Tyr-Arg-Pro-Ser (SEQ. ID NO. 4)], the binding entry in assay [1] and in assay [2] was “binds” each time.
With LLQPTMN [Leu-Leu-Gln-Pro-Thr-Met-Asn (SEQ. ID NO. 2)], the binding result in assay [1] and in assay [2] was “binds” throughout.
Turning to TPKHLFL [Thr-Pro-Lys-His-Leu-Phe-Leu (SEQ. ID NO. 1)], the binding entry in assay [1] and in assay [2] was “binds” in each case.
In the case of SVSVGMKPSPRP [Ser-Val-Ser-Val-Gly-Met-Lys-Pro-Ser-Pro-Arg-Pro (SEQ.ID NO. 3)], the binding entry in assay [1] and in assay [2] was “binds” throughout.
